# From PMC11082164
# Protein sequences, listed by entry. Tags and fused reporters are not part of them.
# UniProt P15311: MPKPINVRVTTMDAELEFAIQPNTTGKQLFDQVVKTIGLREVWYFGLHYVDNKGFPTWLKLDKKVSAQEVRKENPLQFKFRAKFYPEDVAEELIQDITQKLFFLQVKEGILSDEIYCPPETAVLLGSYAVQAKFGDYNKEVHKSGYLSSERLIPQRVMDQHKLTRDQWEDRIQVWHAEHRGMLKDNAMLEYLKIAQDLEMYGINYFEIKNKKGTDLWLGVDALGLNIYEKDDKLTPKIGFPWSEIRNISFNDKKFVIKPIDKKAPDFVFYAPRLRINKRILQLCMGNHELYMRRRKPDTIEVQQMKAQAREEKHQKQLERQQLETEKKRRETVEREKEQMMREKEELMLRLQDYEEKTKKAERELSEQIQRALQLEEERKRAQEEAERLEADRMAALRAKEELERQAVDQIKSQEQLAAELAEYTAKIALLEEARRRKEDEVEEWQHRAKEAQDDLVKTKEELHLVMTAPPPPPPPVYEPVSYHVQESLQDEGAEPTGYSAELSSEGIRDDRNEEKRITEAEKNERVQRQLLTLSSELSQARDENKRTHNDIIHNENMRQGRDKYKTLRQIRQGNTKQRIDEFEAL
# UniProt P26038: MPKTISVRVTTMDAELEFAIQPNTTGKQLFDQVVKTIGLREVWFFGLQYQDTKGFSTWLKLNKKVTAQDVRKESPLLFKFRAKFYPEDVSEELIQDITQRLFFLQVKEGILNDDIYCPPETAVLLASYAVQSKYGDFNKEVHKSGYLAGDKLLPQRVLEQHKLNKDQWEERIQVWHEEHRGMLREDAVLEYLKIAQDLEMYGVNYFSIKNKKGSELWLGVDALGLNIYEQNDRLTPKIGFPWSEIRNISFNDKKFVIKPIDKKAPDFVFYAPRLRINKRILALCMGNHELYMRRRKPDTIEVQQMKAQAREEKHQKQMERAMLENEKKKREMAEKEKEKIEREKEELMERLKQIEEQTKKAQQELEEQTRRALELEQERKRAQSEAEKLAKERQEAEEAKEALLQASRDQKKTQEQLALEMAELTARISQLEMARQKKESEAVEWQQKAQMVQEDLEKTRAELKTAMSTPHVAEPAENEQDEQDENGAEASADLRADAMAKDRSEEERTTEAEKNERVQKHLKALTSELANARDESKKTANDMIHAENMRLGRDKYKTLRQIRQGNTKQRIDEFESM
# Results are given in words; binding and its absence hold for the method and conditions named. In cells and extracts the contact can be indirect. Some entries that bind do so weakly or less than the wild type. Sequences can lack the tags named with a protein.
# Key:
# GFP-Amphiphysin1 (human) = molecular target: T1, GFP-Amphiphysin1 (human) (UniProt P49418); experiment: co-IP; GFP-Trap beads on extracts of transfected HeLa cells, 3 h at 4 °C in lysis buffer (25 mM Tris pH 7.5, 50-100 or 200 mM NaCl, 0.1% NP40), four washes; endogenous partner detected by western blot
# T1 sequence: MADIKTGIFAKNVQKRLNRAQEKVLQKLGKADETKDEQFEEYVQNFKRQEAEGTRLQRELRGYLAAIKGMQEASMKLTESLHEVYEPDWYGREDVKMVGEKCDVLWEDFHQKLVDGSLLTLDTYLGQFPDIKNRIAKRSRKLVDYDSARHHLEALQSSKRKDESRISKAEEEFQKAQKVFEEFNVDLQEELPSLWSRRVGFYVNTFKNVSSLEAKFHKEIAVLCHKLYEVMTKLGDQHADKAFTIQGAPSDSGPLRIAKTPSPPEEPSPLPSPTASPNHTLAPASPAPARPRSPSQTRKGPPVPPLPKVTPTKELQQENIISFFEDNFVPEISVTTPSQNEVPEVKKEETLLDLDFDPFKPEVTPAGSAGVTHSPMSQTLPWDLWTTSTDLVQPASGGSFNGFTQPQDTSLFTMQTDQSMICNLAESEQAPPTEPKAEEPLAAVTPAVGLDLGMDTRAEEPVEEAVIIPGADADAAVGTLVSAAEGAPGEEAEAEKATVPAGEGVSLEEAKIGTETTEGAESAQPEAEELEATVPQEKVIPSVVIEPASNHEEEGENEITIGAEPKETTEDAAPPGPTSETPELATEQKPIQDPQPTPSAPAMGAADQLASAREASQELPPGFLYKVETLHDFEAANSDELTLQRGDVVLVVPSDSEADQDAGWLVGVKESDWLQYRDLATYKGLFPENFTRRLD
# [1] = molecular target: T2, GFP-BIN1 isoform 1 (human) (UniProt O00499); experiment: as above
# T2 sequence: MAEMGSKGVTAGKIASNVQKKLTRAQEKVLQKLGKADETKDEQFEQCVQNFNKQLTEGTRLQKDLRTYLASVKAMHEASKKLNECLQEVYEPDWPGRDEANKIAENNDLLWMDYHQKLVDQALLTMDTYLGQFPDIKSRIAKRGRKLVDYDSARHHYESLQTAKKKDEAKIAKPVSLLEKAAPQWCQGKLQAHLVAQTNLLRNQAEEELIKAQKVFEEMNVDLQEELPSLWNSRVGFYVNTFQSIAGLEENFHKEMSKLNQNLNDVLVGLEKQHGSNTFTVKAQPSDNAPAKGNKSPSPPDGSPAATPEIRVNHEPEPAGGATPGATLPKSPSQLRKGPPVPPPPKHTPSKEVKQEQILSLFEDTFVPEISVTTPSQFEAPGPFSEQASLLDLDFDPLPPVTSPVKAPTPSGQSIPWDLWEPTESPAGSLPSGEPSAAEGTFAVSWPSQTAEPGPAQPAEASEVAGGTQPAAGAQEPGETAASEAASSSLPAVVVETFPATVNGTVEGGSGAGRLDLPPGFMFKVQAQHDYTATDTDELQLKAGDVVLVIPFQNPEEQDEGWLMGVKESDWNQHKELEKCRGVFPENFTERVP
binding (GFP-Amphiphysin1 (human)),binding [1],Substance
no binding,no binding,"ezrin (endogenous, HeLa) (from UniProt P15311 1-586)"
,binds,"moesin (endogenous, HeLa) (from UniProt P26038 1-577)"
